Source: patent US8685658B2, “Compositions and methods for the treatment of diseases associated with aberrant cilia assembly and regulation” (Fox Chase Cancer Center, priority 2006, dated 2014)
Results are given in words; binding and its absence hold for the method and conditions named. In cells and extracts the contact can be indirect. Some binding calls cover weakened binding; strength is not graded here.

Protein sequences, listed by entry. Tags and fused reporters are not part of them.
UniProt Q9UBN7: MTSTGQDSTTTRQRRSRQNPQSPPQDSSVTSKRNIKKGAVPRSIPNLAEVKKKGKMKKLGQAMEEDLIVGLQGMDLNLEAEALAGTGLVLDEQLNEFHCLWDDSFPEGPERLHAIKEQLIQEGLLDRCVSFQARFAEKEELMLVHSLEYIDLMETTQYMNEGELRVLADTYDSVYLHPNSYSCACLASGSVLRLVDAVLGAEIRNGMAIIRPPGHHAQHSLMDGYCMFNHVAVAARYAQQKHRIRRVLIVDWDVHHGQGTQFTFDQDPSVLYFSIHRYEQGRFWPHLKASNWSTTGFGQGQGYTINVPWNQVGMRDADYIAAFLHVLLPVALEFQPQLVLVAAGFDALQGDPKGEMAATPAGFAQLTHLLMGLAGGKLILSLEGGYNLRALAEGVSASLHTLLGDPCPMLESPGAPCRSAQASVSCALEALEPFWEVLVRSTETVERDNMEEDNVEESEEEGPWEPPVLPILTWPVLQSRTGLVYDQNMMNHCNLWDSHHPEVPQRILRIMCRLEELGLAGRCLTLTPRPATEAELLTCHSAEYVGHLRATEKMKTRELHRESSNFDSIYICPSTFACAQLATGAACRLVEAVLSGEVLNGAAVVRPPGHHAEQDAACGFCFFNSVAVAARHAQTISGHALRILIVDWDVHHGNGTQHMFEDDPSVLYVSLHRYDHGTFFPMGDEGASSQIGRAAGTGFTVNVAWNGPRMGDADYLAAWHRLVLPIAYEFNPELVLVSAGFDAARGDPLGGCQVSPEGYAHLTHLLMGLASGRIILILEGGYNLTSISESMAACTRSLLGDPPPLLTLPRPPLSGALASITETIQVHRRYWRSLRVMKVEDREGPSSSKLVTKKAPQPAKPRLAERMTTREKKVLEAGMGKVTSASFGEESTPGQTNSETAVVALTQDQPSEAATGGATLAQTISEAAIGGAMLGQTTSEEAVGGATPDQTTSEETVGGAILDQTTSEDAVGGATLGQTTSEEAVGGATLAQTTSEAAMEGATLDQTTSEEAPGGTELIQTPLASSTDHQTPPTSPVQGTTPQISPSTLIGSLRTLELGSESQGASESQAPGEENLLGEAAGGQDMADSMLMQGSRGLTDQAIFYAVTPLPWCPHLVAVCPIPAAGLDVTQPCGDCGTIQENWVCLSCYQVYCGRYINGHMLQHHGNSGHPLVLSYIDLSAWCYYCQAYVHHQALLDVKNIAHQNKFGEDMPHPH

Key:
[1] = target: histone deacetylase 6 (HDAC6), endogenous in hTERT-RPE1 cells (UniProt Q9UBN7); experiment: co-immunoprecipitation from hTERT-RPE1 cell lysate with anti-AurA antibody, Western blot for HDAC6; not eliminated by pre-treatment with PHA-680632
[2] = target: histone deacetylase 6 (HDAC6), endogenous in hTERT-RPE1 cells (UniProt Q9UBN7); experiment: co-immunoprecipitation with antibody to AurA from hTERT-RPE1 whole cell lysate, Western blot (FIG. 9A legend)

binding [1]: binds | binding [2]: binds
B1: Aurora A (AurA) kinase, endogenous in hTERT-RPE1 cells (enzyme, human, UniProt O14965 1-403, looked up)
chain: MDRSKENCISGPVKATAPVGGPKRVLVTQQFPCQNPLPVNSGQAQRVLCPSNSSQRIPLQAQKLVSSHKPVQNQKQKQLQATSVPHPVSRPLNNTQKSKQPLPSAPENNPEEELASKQKNEESKKRQWALEDFEIGRPLGKGKFGNVYLAREKQSKFILALKVLFKAQLEKAGVEHQLRREVEIQSHLRHPNILRLYGYFHDATRVYLILEYAPLGTVYRELQKLSKFDEQRTATYITELANALSYCHSKRVIHRDIKPENLLLGSAGELKIADFGWSVHAPSSRRTTLCGTLDYLPPEMIEGRMHDEKVDLWSLGVLCYEFLVGKPPFEANTYQETYKRISRVEFTFPDFVTEGARDLISRLLKHNPSQRPMLREVLEHPWITANSSKPSNCQNKESASKQS
